Assay results reported in US20060235199A1 (priority 2003, published 2006).
Some entries repeat one wording, which the source may state once for all of them.

The chains behind the UniProt entries cited, without tags or fusion partners. Where a name states a change or a piece, a line headed by the entry shows the natural chain unless it says otherwise.
UniProt P05067: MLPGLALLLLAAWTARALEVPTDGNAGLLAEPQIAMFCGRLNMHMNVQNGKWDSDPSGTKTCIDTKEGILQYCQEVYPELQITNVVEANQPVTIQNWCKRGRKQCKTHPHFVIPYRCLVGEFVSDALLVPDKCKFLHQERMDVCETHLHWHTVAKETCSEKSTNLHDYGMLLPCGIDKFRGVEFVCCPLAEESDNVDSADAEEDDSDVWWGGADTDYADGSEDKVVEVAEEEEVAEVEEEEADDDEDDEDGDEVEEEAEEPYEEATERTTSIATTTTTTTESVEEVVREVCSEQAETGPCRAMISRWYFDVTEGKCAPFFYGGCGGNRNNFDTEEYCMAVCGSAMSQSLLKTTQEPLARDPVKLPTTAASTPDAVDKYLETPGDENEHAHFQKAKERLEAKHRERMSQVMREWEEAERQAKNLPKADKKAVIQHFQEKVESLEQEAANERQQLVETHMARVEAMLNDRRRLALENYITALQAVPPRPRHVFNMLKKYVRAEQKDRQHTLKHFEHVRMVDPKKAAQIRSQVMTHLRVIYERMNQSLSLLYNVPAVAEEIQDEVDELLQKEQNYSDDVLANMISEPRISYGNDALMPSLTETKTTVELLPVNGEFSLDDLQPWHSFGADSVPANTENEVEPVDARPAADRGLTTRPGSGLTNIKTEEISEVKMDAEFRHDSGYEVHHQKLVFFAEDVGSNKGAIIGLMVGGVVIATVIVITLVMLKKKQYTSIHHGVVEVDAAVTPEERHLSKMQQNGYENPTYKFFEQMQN

Tests used:
[1] = general procedure: Fmoc solid-phase peptide synthesis; NovaSyn TGR resin; HBTU/HOBt-H2O/DIEA; conditions: whole synthesis, scale 20 μmol
[2] = Evaluation, with ThT, of the ability of the artificial peptide used alone to form amyloid fibrils; conditions: for increase in ThT fluorescent intensity with time, peptide alone: peptide 200 μM
Description: The peptide (10-4F), (10-3L), (10-3F), (10-3A), Aβ (14-23) or Aβ (10-35) synthesized in Example 1, which was contained alone in an aqueous solution, was evaluated for its ability to form amyloid fibrils. The secondary structure was examined using a CD spectrum, and the ability to form amyloid fibrils was evaluated with dye thioflavin T (ThT) binding specifically to amyloid fibrils to emit fluorescence, under a transmission electron microscope (TEM). The ability of each artificial peptide obtained in Example 1 to form amyloid fibrils when used alone was evaluated using ThT. Starting solution used: [peptide]=2 mM solution in TFE Concentration: [peptide]=200 μM in 20 mM Tris-HCl buffer (pH 7.4) Temperature: room temperature or 40° C. Concentrations: [peptide]=5 μM, [ThT]=6 μM (20 mM Tris-HCl buffer (pH 7.4)) Temperature: room temperature Stirring conditions: The whole volume of the reaction mixture was sufficiently stirred with a Pasteur pipette before sampling, and then sufficiently stirred in a cell with a Pasteur pipette. Excitation wavelength: 440 nm, detection wavelength: 482 nm. The formation of fibrils was slow at ordinary temperatures to make it difficult to monitor the change with time, so the ability of each artificial peptide used alone to form fibrils was then evaluated at an elevated temperature of 40° C. estimated to accelerate formation of fibrils.

[3] = Observation under TEM of samples whose fluorescent intensity change was finished
[4] = samples after incubation at 40° C., (1-3) in Example 2

Row | Substance | increase in ThT fluorescent intensity with time, peptide alone ([2]; incubation at room temperature) | fibrils observed under TEM [3, 4] | also measured
1 | Ac-KQKLLLFLEE-NH2 | – | – | isolated yield [1]: 35%
2 | Ac-KQKLLLLLEE-NH2 [10-3L] | significant increase in fluorescent intensity with time | fibrils were observed | –
3 | Ac-KQKLLALLEE-NH2 [10-3A] | did not show an increase in fluorescent intensity | – | increase in ThT fluorescent intensity, peptide alone ([2]; incubation at 40° C.): hardly showed an increase in influorescent intensity
4 | Ac-KQKLLFLLEE-NH2 [10-3F] | significant increase in fluorescent intensity with time | – | fluorescent intensity in the end point, compared among peptides ([2]; peptide alone, incubation at room temperature): half or less that of 10-3L or 10-4F
5 | Aβ (10-35): peptide consisting of 10 to 35 residues of amyloid β peptide, used as the nucleus of amyloid fibril (YEVHHQKLVFFAEDVGSNKGAIIGLM; Amyloid-beta protein 42; UniProt P05067 681-706, looked up, fragment) [reference compound] | – | – | fibrils observed under TEM ([3]; sample after room temperature incubation, (1-2) in Example 2): fibrils were observed
6 | Ac-KQKLLLFLEE-NH2 [10-4F] | significant increase in fluorescent intensity with time | fibrils were observed | –
